Record: PubChem BioAssay AID1259266 (Sanger Institute, 2017)

Aim: 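Search kinases and colorectal cancer genes for essential genes and drug synergy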 (primary screen)
Cell system: LS123 human colorectal cancer cells
Reagents: siRNA pool against human genes
Treatment: anchor drugs BYL719 (1 µM), cetuximab (5 µg/ml) or trametinib (10 nM), each chosen to barely slow growth alone; DMSO vehicle as the drug-free arm
Detection: 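Replicate-averaged viability scaled to non-targeting pools, robust z-score for siRNA alone, and a synergy score per anchor drug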
Direction: robust z-score, knock-down alone: higher = more cells surviving after knock-down; viability, knock-down alone: higher = more viable cells
Units: viability, knock-down alone in fraction of control
Rule for the call: 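a knock-down counts as essential if its z-score without drug is under -3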
Meaning of the calls: active = essential (knock-down alone cuts viability); inactive = no change
The whole screen tested 794 reagents; this is an unselected part. 16 of all reagents (2%) count as active. 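Calls reflect knock-down alone, not drug synergy; viability seems capped at 1 and z-scores at 0.585.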 The numbers tell different reagents against one gene apart. Further read-outs or replicates are left out here. Not stated in the record: the amount of reagent, the time to read-out.

Silencing of PRKY resulted in: robust z-score, knock-down alone -1.03; viability, knock-down alone 0.904; inactive.
Knock-down of TRIB1 gave: robust z-score, knock-down alone -1.42; viability, knock-down alone 0.881; inactive.
PRKCQ showed robust z-score, knock-down alone 0.585; viability, knock-down alone 1; inactive.
For PRKACA, the entry reads robust z-score, knock-down alone 0.585; viability, knock-down alone 1; inactive.
Depletion of EPHA4 gave: robust z-score, knock-down alone -0.2; viability, knock-down alone 0.953; inactive.
After knock-down of PFKM, the record shows robust z-score, knock-down alone 0.585; viability, knock-down alone 1; inactive.
For CHUK, the values are robust z-score, knock-down alone 0.585; viability, knock-down alone 1; inactive.
For IRAK1, the values are robust z-score, knock-down alone 0.126; viability, knock-down alone 0.973; inactive.
Against ETNK2 the deposit lists robust z-score, knock-down alone -0.461; viability, knock-down alone 0.938; inactive.
CUL1 scored robust z-score, knock-down alone 0.585; viability, knock-down alone 1; inactive.
For ACVR1C, the entry reads robust z-score, knock-down alone 0.585; viability, knock-down alone 1; inactive.
With knock-down of SPHK2, the screen gave robust z-score, knock-down alone 0.585; viability, knock-down alone 1; inactive.
Silencing of PAK1 gave: robust z-score, knock-down alone -3.3; viability, knock-down alone 0.77; active.
Knock-down of ROCK1 came out at: robust z-score, knock-down alone 0.585; viability, knock-down alone 1; inactive.
After knock-down of PRKCZ, the record shows robust z-score, knock-down alone 0.0147; viability, knock-down alone 0.966; inactive.
For OXSR1 the deposit lists robust z-score, knock-down alone 0.585; viability, knock-down alone 1; inactive.

An excerpt of the results above:
PRKCQ → robust z-score, knock-down alone = 0.585; viability, knock-down alone = 1; Call = inactive
PRKACA → robust z-score, knock-down alone = 0.585; viability, knock-down alone = 1; Call = inactive

Additional records follow:
With knock-down of ITPKB, the record shows robust z-score, knock-down alone 0.585; viability, knock-down alone 1; inactive.
After knock-down of CAMKV the results were robust z-score, knock-down alone -0.405; viability, knock-down alone 0.941; inactive.
For CEP290 the deposit lists robust z-score, knock-down alone 0.585; viability, knock-down alone 1; inactive.
For BRSK1, the entry reads robust z-score, knock-down alone 0.585; viability, knock-down alone 1; inactive.
After knock-down of AKT3, the screen gave robust z-score, knock-down alone 0.585; viability, knock-down alone 1; inactive.
NEK7 scored robust z-score, knock-down alone 0.585; viability, knock-down alone 1; inactive.
With knock-down of SMC1A, the record shows robust z-score, knock-down alone -2.48; viability, knock-down alone 0.818; inactive.
Against RBM10, the values are robust z-score, knock-down alone -0.342; viability, knock-down alone 0.945; inactive.
Against PAK6, the entry reads robust z-score, knock-down alone 0.585; viability, knock-down alone 1; inactive.
Knock-down of STK24 gave: robust z-score, knock-down alone 0.585; viability, knock-down alone 1; inactive.
After knock-down of RIPK2 the results were robust z-score, knock-down alone 0.585; viability, knock-down alone 1; inactive.
Knock-down of MAPK3 gave: robust z-score, knock-down alone -2.25; viability, knock-down alone 0.832; inactive.
Depletion of MYLK2 gave: robust z-score, knock-down alone -2.03; viability, knock-down alone 0.845; inactive.
RBKS gave robust z-score, knock-down alone 0.585; viability, knock-down alone 1; inactive.
With knock-down of CREBBP, the screen gave robust z-score, knock-down alone 0.585; viability, knock-down alone 1; inactive.
Silencing of NRAS came out at: robust z-score, knock-down alone 0.289; viability, knock-down alone 0.982; inactive.
ABL1 gave robust z-score, knock-down alone 0.585; viability, knock-down alone 1; inactive.
NME3 scored robust z-score, knock-down alone -0.957; viability, knock-down alone 0.908; inactive.
With knock-down of LMBR1, the record shows robust z-score, knock-down alone 0.585; viability, knock-down alone 1; inactive.
ILK #1 showed robust z-score, knock-down alone 0.585; viability, knock-down alone 1; inactive.
With knock-down of ILK #2, the screen gave robust z-score, knock-down alone 0.585; viability, knock-down alone 1; inactive.
